# Results of single-concentration screens

Protein sequences, listed by entry. Tags and fused reporters are not part of them. Residues count along the entry.
UniProt P9WPC5, whole entry: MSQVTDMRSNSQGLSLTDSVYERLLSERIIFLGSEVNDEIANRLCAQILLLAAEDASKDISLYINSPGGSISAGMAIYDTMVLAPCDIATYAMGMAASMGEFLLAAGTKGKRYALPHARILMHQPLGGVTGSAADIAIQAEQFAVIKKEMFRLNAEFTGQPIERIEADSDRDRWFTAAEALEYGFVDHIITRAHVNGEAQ
UniProt P9WPC3, whole entry partner: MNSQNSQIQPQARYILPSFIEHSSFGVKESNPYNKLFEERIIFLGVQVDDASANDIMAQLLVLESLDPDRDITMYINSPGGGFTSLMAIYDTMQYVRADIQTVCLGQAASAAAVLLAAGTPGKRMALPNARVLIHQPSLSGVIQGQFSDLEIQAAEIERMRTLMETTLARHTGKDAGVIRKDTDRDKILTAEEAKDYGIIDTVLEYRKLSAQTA
UniProt P9WFT3, whole entry: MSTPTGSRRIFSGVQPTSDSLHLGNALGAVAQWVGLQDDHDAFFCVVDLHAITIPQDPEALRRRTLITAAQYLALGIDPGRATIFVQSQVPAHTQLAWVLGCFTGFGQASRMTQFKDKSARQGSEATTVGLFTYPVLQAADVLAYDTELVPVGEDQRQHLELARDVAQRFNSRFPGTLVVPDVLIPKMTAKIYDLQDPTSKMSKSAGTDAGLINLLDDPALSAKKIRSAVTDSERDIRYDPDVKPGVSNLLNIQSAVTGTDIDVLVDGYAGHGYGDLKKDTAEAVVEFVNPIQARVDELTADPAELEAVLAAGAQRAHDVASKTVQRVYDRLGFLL
UniProt I6X8D2, whole entry: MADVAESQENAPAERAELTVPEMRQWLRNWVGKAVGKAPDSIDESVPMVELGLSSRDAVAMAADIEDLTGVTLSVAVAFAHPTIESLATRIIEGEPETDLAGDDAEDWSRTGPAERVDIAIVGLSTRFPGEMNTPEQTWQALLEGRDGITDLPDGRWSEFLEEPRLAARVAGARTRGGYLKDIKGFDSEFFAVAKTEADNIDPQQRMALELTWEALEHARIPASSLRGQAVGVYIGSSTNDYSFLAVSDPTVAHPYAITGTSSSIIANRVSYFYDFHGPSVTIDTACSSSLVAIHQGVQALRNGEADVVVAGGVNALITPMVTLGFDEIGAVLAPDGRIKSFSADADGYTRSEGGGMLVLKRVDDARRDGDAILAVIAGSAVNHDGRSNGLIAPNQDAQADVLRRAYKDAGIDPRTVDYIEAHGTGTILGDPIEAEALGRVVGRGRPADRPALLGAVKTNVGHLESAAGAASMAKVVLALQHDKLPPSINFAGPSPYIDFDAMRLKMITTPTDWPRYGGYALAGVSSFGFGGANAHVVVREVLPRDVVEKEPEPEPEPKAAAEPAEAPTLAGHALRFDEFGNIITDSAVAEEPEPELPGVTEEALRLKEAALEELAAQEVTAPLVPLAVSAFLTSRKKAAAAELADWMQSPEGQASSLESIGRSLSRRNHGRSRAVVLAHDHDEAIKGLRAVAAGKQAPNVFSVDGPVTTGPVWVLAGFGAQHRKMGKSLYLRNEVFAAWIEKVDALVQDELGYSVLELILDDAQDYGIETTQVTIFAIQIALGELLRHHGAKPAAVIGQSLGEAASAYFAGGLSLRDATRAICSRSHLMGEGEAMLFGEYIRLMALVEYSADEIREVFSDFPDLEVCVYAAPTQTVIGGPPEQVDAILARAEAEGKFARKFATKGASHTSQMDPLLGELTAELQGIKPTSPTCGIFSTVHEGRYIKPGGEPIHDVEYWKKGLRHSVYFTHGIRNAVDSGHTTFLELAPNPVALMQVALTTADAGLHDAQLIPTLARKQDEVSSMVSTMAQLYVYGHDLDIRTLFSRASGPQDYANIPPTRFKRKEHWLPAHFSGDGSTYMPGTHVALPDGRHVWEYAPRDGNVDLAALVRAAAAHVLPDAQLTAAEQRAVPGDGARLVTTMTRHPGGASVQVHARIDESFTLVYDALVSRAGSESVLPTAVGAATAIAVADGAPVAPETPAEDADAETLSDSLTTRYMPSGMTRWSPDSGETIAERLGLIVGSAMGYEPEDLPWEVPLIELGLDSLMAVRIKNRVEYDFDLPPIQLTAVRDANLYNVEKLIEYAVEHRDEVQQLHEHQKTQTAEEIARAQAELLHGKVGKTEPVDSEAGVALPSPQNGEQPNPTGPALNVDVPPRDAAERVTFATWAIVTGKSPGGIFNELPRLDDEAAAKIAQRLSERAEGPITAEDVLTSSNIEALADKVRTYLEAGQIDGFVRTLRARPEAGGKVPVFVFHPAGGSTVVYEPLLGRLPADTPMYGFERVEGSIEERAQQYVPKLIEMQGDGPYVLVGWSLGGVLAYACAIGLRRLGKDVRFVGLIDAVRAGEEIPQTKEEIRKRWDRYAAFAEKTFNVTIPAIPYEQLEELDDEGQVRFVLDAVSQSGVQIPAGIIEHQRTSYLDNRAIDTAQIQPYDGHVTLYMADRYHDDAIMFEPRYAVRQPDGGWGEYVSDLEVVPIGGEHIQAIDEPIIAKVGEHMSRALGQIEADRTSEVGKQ
UniProt Q8IDJ8, 1-583: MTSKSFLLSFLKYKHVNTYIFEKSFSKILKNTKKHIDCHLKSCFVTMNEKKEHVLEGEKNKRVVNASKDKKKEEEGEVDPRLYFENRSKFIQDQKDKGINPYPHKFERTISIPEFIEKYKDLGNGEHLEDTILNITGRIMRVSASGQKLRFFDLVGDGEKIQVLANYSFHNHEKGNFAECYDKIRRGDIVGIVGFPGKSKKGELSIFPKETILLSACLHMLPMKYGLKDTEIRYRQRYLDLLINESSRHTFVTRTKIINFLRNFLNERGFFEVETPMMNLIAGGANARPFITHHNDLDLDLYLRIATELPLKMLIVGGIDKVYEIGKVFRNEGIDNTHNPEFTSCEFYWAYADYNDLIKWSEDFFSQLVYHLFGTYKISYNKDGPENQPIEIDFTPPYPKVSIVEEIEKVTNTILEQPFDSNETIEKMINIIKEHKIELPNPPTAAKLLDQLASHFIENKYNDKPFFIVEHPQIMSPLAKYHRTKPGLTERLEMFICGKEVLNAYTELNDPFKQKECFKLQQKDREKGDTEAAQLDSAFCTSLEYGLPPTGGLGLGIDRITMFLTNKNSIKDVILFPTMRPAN

ClpP1P2: 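ClpP1P2, Mycobacterium tuberculosis (UniProt P9WPC5 and UniProt P9WPC3). Protease assay of ClpP1P2, read by the AMC dye that it sets free. Tested at 50 µM. Higher reads as stronger inhibition, judged from the few compounds that gave an IC50. Most other retested compounds had strongly negative values. About 69,000 compounds were tested under these conditions; 0.015% (about 10) showed 50% or more at least once.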
MtTrpRS: 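Tryptophan-tRNA ligase, Mycobacterium tuberculosis (UniProt P9WFT3). Enzyme assay of tryptophanyl-tRNA synthetase; the read-out is not stated. Concentration: 10 µM. Higher most likely means stronger inhibition; the record gives no direction and few retests gave an IC50. Of about 65,000 compounds tested this way, about 64 (0.098%) reached 50% or more in at least one test.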
Pks13 thioesterase: 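Enzyme assay of the thioesterase domain of polyketide synthase 13; the read-out is not stated. Target: Polyketide synthase Pks13, Mycobacterium tuberculosis (UniProt I6X8D2). Compounds at 30 µM. The record gives no direction; the compounds picked for IC50 retests had high values, so higher reads as stronger inhibition. Size under these conditions: about 67,000 compounds, about 300 of them at 50% or above in at least one test.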
PfKRS1: 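Enzyme assay of the cytosolic lysyl-tRNA synthetase in 384-well plates, read by luminescence. Target: Lysine-tRNA ligase, Plasmodium falciparum 3D7 (UniProt Q8IDJ8). Tested at 30 µM. Higher reads as stronger inhibition, judged from the few compounds that gave an IC50. Of about 69,000 compounds tested this way, about 49 (0.071%) reached 50% or more in at least one test.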

Values are the deposited “Percent Effect”, in %.
How 0% and 100% were set is not recorded. Most values in the screen are low, and negative values occur.
This is an unselected part of the compounds tested.

{"structure": "N#Cc1cccnc1N1CCC(Nc2ccccc2)C1", "stereo": "stereo not shown", "ClpP1P2": -2.307, "MtTrpRS": 6.359, "Pks13 thioesterase": -5.734, "PfKRS1": 6.656}
{"structure": "COc1ccc(NC(C)C(=O)N2CCN(Cc3ccccc3)CC2)cn1", "stereo": "stereo not shown", "ClpP1P2": -12.57, "MtTrpRS": 9.622, "Pks13 thioesterase": 20.3, "PfKRS1": 5.019}
{"structure": "c1cc(CCN2CCN(c3ccc4nncn4n3)CC2)ccn1", "ClpP1P2": -6.878, "MtTrpRS": -0.5801, "Pks13 thioesterase": -12.38, "PfKRS1": 0.8714}
{"structure": "CC(NCc1ccsc1)c1ccc(OCc2nccn2C)cc1", "stereo": "stereo not shown", "ClpP1P2": -13.08, "MtTrpRS": -6.118, "Pks13 thioesterase": -24.23, "PfKRS1": 6.514}
{"structure": "CCN1C(=O)C(c2ccccc2)CC12CCN(Cc1cccnc1)CC2", "stereo": "stereo not shown", "ClpP1P2": -3.972, "MtTrpRS": 6.063, "Pks13 thioesterase": -16.48, "PfKRS1": 3.648}
{"structure": "COC(=O)C1CCCN1C(=O)c1ccc(Cl)cc1F", "stereo": "stereo not shown", "ClpP1P2": 10.99, "MtTrpRS": -3.372, "Pks13 thioesterase": -26.36, "PfKRS1": 2.476}
{"structure": "CSCc1cccc(NC(=O)N2CCC(N3CC=CC3)C2)c1", "stereo": "stereo not shown", "ClpP1P2": -23.08, "MtTrpRS": 1.511, "Pks13 thioesterase": 6.116, "PfKRS1": -1.346}
{"structure": "COc1ccccc1CC1CCCN(C(=O)c2n[nH]c3c2CCC3)C1", "stereo": "stereo not shown", "ClpP1P2": -3.999, "MtTrpRS": -1.06, "Pks13 thioesterase": -47.59, "PfKRS1": 3.516}
{"structure": "OC(CN1CCN(Cc2nnc(C3CC3)o2)CC1)c1ccccc1", "stereo": "stereo not shown", "ClpP1P2": 2.048, "MtTrpRS": 2.596, "Pks13 thioesterase": -22.66, "PfKRS1": 10.18}
{"structure": "CCN(CC)S(=O)(=O)c1cc2c3c(c1)c(C)cc(=O)n3CCC2", "ClpP1P2": 25.48, "MtTrpRS": -0.9675, "Pks13 thioesterase": -4.391, "PfKRS1": 1.878}
{"structure": "C[C@@H]1CN(C(=O)CCCN2CCOCC2)C[C@@]1(O)C1CC1", "ClpP1P2": -3.227, "MtTrpRS": -0.5038, "Pks13 thioesterase": -25.5, "PfKRS1": 1.091}
{"structure": "CCN(CC)C(=O)Cn1cc(-c2nc(C(C)C)no2)nn1", "ClpP1P2": -9.022, "MtTrpRS": 0.4881, "Pks13 thioesterase": -10.04, "PfKRS1": 5.909}
{"structure": "CS(=O)(=O)N1CCC(c2nnc3ccc(C(=O)NC4CCC4)cn23)C1", "stereo": "stereo not shown", "ClpP1P2": -0.9961, "MtTrpRS": -1.089, "Pks13 thioesterase": -8.27, "PfKRS1": 4.51}
{"structure": "CNC(=O)CS(=O)(=O)Cc1coc(-c2ccc(F)cc2)n1", "ClpP1P2": -1.274, "MtTrpRS": -2.399, "Pks13 thioesterase": -2.472, "PfKRS1": -4.255}
{"structure": "Cc1cccc(CC(=O)N2CCOCC2c2c(C)n[nH]c2C)c1", "stereo": "stereo not shown", "ClpP1P2": -12.69, "MtTrpRS": 0.136, "Pks13 thioesterase": -3.732, "PfKRS1": -0.9296}
{"structure": "CC(C)CN1CC(O)CN(C(=O)c2cccc(C(F)(F)F)c2)CC1=O", "stereo": "stereo not shown", "ClpP1P2": 15.99, "Pks13 thioesterase": -22.97, "PfKRS1": 3.864}
{"structure": "Cc1cc(C2CCCCN2C(=O)c2ccsc2)nc2nccn12", "stereo": "stereo not shown", "ClpP1P2": -17.53, "MtTrpRS": 2.824, "Pks13 thioesterase": 84.26, "PfKRS1": -2.644}
{"structure": "CCOc1ncccc1CNC(=O)N1CCCC1c1cc(C)no1", "stereo": "stereo not shown", "ClpP1P2": 1.104, "MtTrpRS": -3.908, "Pks13 thioesterase": -9.019, "PfKRS1": 9.032}
{"structure": "CC(C)c1ccc(OCC(=O)N(C)C)cc1", "ClpP1P2": -39.94, "MtTrpRS": 2.929, "Pks13 thioesterase": -1.054, "PfKRS1": 1.022}
{"structure": "CCn1ccc2cc(NC(=O)CC3CCCO3)ccc21", "stereo": "stereo not shown", "ClpP1P2": 6.499, "MtTrpRS": 0.4914, "Pks13 thioesterase": -29.73, "PfKRS1": 0.06658}
{"structure": "CCN(Cc1cccc(C(=O)Nc2c(C)cnn2C)c1)[C@H]1COC[C@@H]1O", "ClpP1P2": 4.132, "MtTrpRS": -3.549, "Pks13 thioesterase": -4.699, "PfKRS1": 0.3222}
{"structure": "CCOc1ncccc1NC(=O)c1ccc(C(C)=O)s1", "ClpP1P2": -1.043, "MtTrpRS": -2.419, "Pks13 thioesterase": 13.31, "PfKRS1": 4.671}
{"structure": "COCCOCC(=O)N1C[C@@H]2CC[C@H](Oc3ccccc3)[C@@H]2C1", "ClpP1P2": 5.484, "MtTrpRS": 0.9855, "Pks13 thioesterase": 1.786, "PfKRS1": 0.6068}
{"structure": "Cc1cc(C)cc(C2(C(=O)NC(C)Cn3ccnc3)CC2)c1", "stereo": "stereo not shown", "ClpP1P2": -1.051, "MtTrpRS": 1.652, "Pks13 thioesterase": -33.31, "PfKRS1": 11.1}
{"structure": "COCCc1noc(CNC2CCCC(C)(C)C2)n1", "stereo": "stereo not shown", "ClpP1P2": -10.29, "MtTrpRS": 3.543, "Pks13 thioesterase": -6.008, "PfKRS1": 4.234}
{"structure": "Cc1ccc(C(=O)N(C)CC(=O)Nc2cccc(C)n2)cn1", "ClpP1P2": 2.613, "MtTrpRS": -4.46, "Pks13 thioesterase": -26.97, "PfKRS1": 4.214}
{"structure": "COc1ccc(NC2(C(=O)N3CCCn4cncc4C3)CCCC2)cc1", "ClpP1P2": 23.47, "MtTrpRS": 3.072, "Pks13 thioesterase": -4.472, "PfKRS1": 2.76}
{"structure": "CCS(=O)(=O)CCN1CCN(C(C)c2cccnc2)CC1", "stereo": "stereo not shown", "ClpP1P2": -8.677, "MtTrpRS": -3.205, "Pks13 thioesterase": -16.13, "PfKRS1": 0.4174}
{"structure": "CC(C)C(=O)N1CCC2(CC1)NC(=O)[C@H]1CN(Cc3cccnc3)C[C@H]12", "ClpP1P2": -6.089, "MtTrpRS": -2.344, "Pks13 thioesterase": -24.78, "PfKRS1": 1.927}
{"structure": "Cc1cccc(CN2CC3C[C@]3(NC(=O)c3ccco3)C2)n1", "stereo": "stereo partly shown", "ClpP1P2": 2.505, "MtTrpRS": -0.2907, "Pks13 thioesterase": 10.89, "PfKRS1": -1.274}
{"structure": "Cc1cccc(CN2CCCCC2c2n[nH]cc2-c2cc(C)no2)c1", "stereo": "stereo not shown", "ClpP1P2": -26.88, "MtTrpRS": -3.735, "Pks13 thioesterase": -7.712, "PfKRS1": 0.4836}

Repeated from the top, 4 entries:

N#Cc1cccnc1N1CCC(Nc2ccccc2)C1 (stereo not shown) gave ClpP1P2: -2.307%; MtTrpRS: 6.359%; Pks13 thioesterase: -5.734%; PfKRS1: 6.656%.
COc1ccc(NC(C)C(=O)N2CCN(Cc3ccccc3)CC2)cn1 (stereo not shown) gave ClpP1P2: -12.57%; MtTrpRS: 9.622%; Pks13 thioesterase: 20.3%; PfKRS1: 5.019%.
c1cc(CCN2CCN(c3ccc4nncn4n3)CC2)ccn1 gave ClpP1P2: -6.878%; MtTrpRS: -0.5801%; Pks13 thioesterase: -12.38%; PfKRS1: 0.8714%.
CC(NCc1ccsc1)c1ccc(OCc2nccn2C)cc1 (stereo not shown) gave ClpP1P2: -13.08%; MtTrpRS: -6.118%; Pks13 thioesterase: -24.23%; PfKRS1: 6.514%.

Data taken from ChEMBL document CHEMBL3988442, “University of Dundee, Small-Polar-MMV Screening Library” (2021).